Data: US20130065936A1, “MODULATION OF BIOACTIVE EPOXY-FATTY ACID LEVELS BY PHOSPHODIESTERASE INHIBITORS” (THE REGENTS OF THE UNIVERSITY OF CALIFORNIA, priority 2010, published 2013)
At least one structure is not confirmed: it was looked up by name or label, or the drawing left a doubt.

Legend:
Sprague-Dawley rats [1] = experiment: PGE2 elicited pain model, von Frey mechanical withdrawal threshold; format: in vivo, rat; settings: for PGE2-elicited pain, von Frey mechanical withdrawal threshold: PGE2 100 ng per paw, drug s.c. 1 h before PGE2 (TPAU 10, TUPS 3, celecoxib 20, dexamethasone 5 mg/kg); for dependence of efficacy on pain intensity (PGE2 dose): PGE2 10, 30 and 100 ng/paw, TPAU 10 mg/kg or TUPS 3 mg/kg s.c.
Sprague-Dawley rats [2] = experiment: Acute nociceptive responses in healthy rats, Hargreaves thermal withdrawal latency; format: in vivo, rat
Sprague-Dawley rats [3] = settings: Inceoglu et al. 2006; cited from earlier work

Compound	PGE2-elicited pain, von Frey mechanical withdrawal threshold (Sprague-Dawley rats [1])	antagonism of / interaction with rolipram-produced increase in thermal withdrawal latency (Sprague-Dawley rats [2]; Hargreaves, celecoxib 20, fluconazole 40, micanozole 40, finasteride 10, picrotoxin 0.25 mg/kg)	pain related behavior, compound on its own (Sprague-Dawley rats [3])	dependence of efficacy on pain intensity (PGE2 dose) (Sprague-Dawley rats [1])	thermal withdrawal latency / pain related behavior, change from predrug baseline (Sprague-Dawley rats [2]; healthy rats, s.c., about 1 h after administration)
C[C@@H]1C[C@H]2[C@@H]3CCC4=CC(=O)C=C[C@]4(C)[C@@]3(F)[C@@H](O)C[C@]2(C)[C@@]1(O)C(=O)CO [dexamethasone]	impervious to reversal	–	–	–	–
Cc1ccc(-c2cc(C(F)(F)F)nn2-c2ccc(S(N)(=O)=O)cc2)cc1 [celecoxib]	impervious to reversal	did not demonstrate any interaction	–	–	–
O=C(O)CCCCCCCCCCCNC(=O)NC12CC3CC(CC(C3)C1)C2 [AUDA, 12-(3-Adamantan-1-yl-ureido)dodecanoic acid]	–	–	ineffective on its own in changing pain related behavior	–	–
CS(=O)(=O)N1CCC(NC(=O)Nc2ccc(OC(F)(F)F)cc2)CC1 [TUPS, 1-(1-methylsulfonyl-piperidin-4-yl)-3-(4-trifluoromethoxy-phenyl)-urea]	eliminate PGE2-elicited pain	–	–	reducing PGE2-induced pain in an intensity dependent manner	–
CC(=O)N1CCC(NC(=O)Nc2ccc(OC(F)(F)F)cc2)CC1 [TPAU]	eliminate PGE2-elicited pain	–	–	efficacy of TPAU increased as the amount of administered PGE2 increased	lack of effect
